Here are results for one molecule from US20240325544A1, “CATIONIC LIPID FOR COVALENT MODIFICATION OF PEPTIDES” (PharmalN Corporation, priority 2023, published 2024).

Results are given in words; binding and its absence hold for the method and conditions named. Some results given as binding are weak or reduced against the parent protein; the word gives no strength. Tags and fused reporters may be left off the sequences shown.

This experiment has as its target T1, Recombinant human NPRC extracellular domain - human IgG1 Fc fusion (NPRC-Fc) (human) (UniProt P17342).
T1 sequence (looked up): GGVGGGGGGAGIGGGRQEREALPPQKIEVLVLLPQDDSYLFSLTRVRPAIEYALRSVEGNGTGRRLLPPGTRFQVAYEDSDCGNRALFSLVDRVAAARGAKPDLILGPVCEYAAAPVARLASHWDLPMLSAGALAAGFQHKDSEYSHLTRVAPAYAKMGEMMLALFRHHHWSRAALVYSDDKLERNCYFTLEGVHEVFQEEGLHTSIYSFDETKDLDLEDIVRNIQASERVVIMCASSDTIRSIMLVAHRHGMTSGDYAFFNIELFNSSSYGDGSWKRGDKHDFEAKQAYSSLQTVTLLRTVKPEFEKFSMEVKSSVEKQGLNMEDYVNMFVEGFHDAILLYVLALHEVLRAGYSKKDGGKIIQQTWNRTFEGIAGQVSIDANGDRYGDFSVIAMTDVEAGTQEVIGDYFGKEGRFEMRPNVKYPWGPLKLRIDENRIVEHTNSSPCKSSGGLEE
Put plainly: Fluorescence polarization, 5 nM CNP-F* with 50 nM human NPRC.

Regarding GLSKGCFGLKLDRIGSMSGLGC (N-terminal 5(6)-Carboxyfluorescein (F*); disulfide bond formed (cyclic peptide)) [CNP-F* probe (C-type natriuretic peptide bound to 5(6)-Carboxyfluorescein)], the binding entry is on record as “binds”.
